Laboratory results reported in the supplement of paper PMC10849652.
This is one part of the list.

By UniProt entry, the sequences of proteins in these tests, tags left out. Where a name states a change or a piece, a line headed by the entry shows the natural chain unless it says otherwise.
UniProt O60641: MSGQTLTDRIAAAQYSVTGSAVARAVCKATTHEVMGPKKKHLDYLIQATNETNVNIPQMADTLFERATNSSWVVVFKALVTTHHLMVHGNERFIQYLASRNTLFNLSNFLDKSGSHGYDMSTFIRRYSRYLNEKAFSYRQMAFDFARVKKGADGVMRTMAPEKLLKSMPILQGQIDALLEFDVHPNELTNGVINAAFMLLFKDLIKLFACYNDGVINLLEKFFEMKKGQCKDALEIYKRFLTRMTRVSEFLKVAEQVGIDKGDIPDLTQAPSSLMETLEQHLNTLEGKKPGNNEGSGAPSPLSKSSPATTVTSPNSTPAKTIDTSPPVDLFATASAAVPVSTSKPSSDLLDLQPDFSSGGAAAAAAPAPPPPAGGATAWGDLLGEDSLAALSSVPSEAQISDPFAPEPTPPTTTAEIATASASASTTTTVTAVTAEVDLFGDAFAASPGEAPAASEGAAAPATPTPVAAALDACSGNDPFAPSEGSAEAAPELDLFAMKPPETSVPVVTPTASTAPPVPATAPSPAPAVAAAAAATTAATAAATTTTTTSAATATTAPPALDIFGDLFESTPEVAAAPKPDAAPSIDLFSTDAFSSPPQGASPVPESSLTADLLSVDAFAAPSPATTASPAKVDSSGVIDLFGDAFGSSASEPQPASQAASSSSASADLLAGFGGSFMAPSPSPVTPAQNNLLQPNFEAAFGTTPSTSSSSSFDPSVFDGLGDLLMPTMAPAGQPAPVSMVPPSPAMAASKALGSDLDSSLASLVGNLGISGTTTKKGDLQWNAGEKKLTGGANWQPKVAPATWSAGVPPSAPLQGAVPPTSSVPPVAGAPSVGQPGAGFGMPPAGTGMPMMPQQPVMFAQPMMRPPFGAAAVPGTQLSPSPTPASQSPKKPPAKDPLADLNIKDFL
UniProt Q9NRH2: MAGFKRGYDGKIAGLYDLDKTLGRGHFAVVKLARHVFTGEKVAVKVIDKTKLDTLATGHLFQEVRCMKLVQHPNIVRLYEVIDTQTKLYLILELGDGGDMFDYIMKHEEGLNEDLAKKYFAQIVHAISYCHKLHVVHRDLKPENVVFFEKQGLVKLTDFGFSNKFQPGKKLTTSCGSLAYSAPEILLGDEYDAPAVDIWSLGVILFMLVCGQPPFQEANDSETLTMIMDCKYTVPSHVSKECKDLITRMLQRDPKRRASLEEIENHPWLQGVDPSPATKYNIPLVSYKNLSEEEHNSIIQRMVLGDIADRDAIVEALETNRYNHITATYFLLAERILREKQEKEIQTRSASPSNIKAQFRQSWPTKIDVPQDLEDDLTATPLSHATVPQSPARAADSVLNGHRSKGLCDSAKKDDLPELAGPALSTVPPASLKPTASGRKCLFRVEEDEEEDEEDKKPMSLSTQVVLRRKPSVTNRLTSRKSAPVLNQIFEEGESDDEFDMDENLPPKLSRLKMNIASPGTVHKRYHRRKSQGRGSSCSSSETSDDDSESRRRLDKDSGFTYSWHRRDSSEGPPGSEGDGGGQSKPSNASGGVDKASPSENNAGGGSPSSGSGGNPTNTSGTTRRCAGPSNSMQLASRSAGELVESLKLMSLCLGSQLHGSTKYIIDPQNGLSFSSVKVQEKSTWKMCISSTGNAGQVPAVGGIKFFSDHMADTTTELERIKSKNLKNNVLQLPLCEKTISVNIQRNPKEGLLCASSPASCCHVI
UniProt Q7Z3B0: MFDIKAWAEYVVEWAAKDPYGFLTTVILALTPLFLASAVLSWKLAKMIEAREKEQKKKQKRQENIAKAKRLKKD
UniProt O14508, whole entry, looked up: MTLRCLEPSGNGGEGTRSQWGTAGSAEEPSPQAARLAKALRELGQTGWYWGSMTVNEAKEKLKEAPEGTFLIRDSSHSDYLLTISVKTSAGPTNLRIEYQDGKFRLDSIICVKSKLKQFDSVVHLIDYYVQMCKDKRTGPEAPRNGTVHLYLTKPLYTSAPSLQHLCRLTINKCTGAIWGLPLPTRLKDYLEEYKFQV
UniProt Q6GMV2: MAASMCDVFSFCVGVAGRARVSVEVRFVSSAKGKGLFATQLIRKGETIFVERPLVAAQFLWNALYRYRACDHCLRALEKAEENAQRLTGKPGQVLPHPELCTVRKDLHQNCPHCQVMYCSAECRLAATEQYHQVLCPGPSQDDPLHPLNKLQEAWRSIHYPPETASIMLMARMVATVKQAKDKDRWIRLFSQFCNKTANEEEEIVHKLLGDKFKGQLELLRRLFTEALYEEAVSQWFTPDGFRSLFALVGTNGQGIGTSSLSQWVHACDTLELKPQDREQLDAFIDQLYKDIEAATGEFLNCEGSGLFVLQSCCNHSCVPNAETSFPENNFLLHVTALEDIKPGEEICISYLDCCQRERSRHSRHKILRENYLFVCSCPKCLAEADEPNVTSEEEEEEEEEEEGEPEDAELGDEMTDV
UniProt Q9NX45: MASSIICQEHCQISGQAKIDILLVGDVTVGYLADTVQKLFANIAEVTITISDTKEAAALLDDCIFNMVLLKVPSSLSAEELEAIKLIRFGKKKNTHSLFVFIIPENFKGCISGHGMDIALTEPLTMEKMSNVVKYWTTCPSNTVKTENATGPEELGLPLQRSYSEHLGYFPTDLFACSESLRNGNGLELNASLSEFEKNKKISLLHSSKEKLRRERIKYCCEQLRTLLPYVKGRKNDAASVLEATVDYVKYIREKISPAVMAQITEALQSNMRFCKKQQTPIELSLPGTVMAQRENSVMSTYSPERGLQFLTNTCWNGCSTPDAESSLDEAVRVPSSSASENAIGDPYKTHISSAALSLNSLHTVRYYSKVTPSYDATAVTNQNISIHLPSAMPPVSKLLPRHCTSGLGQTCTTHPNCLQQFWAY
UniProt P35712: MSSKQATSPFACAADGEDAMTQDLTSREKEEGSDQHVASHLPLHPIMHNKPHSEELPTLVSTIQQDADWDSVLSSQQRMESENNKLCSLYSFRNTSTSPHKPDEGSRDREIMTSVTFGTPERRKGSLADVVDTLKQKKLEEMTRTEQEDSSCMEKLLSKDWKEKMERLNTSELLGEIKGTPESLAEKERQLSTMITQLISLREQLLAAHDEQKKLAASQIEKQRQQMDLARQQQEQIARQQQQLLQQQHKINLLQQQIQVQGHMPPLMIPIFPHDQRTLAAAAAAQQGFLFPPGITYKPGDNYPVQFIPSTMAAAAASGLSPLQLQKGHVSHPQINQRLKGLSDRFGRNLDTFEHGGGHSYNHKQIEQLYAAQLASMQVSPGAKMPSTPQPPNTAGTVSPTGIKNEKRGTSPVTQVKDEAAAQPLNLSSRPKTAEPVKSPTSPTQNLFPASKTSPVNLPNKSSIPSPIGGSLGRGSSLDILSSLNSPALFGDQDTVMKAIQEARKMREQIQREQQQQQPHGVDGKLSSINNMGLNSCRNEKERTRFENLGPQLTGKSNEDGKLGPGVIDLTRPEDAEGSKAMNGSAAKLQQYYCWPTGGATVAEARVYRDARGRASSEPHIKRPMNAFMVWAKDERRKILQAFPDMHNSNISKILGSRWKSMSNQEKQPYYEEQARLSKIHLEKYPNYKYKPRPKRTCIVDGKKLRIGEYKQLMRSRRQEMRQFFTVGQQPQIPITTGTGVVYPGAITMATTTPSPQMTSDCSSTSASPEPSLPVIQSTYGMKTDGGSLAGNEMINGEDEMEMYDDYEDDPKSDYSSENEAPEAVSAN
UniProt Q9H4I9: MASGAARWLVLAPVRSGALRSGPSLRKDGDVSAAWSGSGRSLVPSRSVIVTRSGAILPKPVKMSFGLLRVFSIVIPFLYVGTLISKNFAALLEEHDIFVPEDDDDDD
UniProt Q02447: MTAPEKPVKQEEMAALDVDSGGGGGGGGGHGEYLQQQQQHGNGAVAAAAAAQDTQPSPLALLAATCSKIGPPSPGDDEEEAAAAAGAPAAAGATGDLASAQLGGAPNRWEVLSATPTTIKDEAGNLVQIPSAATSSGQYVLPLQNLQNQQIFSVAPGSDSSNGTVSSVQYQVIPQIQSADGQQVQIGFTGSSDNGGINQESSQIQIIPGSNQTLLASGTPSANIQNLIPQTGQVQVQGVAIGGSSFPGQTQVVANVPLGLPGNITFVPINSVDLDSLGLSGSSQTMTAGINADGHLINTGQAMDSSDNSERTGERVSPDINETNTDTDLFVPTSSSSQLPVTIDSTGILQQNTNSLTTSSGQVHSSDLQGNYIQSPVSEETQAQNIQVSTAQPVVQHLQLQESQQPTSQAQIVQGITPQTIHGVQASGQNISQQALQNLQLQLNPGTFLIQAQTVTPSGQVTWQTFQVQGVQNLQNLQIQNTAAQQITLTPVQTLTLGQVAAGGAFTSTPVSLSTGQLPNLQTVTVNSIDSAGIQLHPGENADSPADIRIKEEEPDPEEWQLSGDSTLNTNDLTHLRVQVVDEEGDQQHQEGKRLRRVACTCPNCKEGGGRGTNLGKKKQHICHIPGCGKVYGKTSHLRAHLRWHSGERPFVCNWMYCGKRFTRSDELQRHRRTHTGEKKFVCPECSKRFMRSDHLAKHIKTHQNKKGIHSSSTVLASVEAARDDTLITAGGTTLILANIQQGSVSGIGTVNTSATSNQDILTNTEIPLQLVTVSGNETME
UniProt O95219: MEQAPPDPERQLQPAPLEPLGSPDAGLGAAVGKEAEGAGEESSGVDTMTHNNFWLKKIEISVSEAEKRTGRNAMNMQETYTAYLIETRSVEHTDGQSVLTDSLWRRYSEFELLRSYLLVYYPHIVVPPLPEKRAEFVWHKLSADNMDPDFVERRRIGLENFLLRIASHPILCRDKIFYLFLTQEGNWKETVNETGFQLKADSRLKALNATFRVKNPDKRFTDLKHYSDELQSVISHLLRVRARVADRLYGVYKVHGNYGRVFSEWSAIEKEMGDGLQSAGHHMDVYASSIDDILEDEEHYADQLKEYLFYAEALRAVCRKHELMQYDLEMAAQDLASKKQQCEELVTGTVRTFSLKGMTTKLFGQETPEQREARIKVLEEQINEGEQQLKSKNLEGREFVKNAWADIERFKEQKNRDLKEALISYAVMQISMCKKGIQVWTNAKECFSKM
UniProt Q8TEQ0: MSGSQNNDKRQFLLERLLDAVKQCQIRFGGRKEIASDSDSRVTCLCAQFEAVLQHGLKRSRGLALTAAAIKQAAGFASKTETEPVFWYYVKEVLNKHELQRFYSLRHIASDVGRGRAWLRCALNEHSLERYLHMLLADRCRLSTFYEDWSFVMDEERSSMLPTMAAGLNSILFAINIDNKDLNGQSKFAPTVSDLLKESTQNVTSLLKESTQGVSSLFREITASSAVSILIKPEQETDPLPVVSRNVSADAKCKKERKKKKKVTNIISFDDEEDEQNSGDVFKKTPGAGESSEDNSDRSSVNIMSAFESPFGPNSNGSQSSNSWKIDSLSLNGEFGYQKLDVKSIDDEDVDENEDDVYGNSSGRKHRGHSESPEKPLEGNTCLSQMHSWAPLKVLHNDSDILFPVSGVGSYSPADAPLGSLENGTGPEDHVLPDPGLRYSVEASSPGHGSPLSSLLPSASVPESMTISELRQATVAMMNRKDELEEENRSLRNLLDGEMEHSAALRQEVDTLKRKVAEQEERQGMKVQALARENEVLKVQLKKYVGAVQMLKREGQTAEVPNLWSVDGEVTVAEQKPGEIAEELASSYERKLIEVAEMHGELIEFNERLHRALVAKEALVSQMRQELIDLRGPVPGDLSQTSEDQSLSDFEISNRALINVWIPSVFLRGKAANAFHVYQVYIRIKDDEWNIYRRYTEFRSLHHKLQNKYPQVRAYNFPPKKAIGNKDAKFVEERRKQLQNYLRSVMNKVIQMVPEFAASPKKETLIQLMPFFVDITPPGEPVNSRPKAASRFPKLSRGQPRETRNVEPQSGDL
UniProt Q8N5G0: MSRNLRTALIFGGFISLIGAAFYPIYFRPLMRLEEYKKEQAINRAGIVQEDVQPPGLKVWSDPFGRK
UniProt P35711: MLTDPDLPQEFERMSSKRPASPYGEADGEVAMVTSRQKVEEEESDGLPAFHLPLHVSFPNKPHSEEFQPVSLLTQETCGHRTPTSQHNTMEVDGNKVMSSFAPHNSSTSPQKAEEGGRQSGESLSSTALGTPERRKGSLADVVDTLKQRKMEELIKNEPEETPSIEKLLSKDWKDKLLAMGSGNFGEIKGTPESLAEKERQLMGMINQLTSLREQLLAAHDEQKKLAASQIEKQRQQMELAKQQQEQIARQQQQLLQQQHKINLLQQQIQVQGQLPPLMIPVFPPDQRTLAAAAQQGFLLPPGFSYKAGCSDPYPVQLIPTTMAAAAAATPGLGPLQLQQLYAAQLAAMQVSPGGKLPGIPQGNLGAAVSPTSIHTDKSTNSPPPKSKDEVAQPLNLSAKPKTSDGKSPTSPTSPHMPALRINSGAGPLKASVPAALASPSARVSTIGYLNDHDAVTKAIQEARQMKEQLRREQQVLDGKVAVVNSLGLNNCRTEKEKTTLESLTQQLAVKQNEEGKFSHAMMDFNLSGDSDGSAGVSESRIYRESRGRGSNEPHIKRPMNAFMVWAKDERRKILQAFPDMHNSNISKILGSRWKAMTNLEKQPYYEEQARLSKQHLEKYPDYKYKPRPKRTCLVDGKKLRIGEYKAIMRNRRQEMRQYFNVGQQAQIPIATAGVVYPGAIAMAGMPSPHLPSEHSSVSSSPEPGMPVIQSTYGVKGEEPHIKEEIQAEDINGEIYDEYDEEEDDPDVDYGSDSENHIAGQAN

Tests used:
Assay in all cases: log2 fold change, soluble protein after heating vs DMSO (PISA); higher = thermal stabilisation; K562 lysate, 10 uM; active = over 0.2 and 3.5 SD of the protein, either way, in both replicates (recomputed)
alvocidib = compound: CN1CC[C@H](c2c(O)cc(O)c3c(=O)cc(-c4ccccc4Cl)oc23)[C@H](O)C1 [alvocidib]
In short: (§1)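 To prepare the extract, K562 pellets were dounce-homogenised in PBS pH 7.4 with 1 mM MgCl2, giving crude material at 1 mg/mL protein. This was treated with 10 μM compound for 30 min, then heated in aliquots for 3 min over 48°C-58°C before pooling and addition of NP-40 to 0.5% at 4°C. Centrifugation at 21,000xg for 90 min left soluble protein in the supernatant, which TMTpro 16plex LC-MS/MS quantified with equalised channel sums. Results are log-two fold changes in thermal stability compared with solvent controls, from duplicates.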

Tubastatin A = compound: CN1CCc2c(c3ccccc3n2Cc2ccc(C(=O)NO)cc2)C1 [Tubastatin A]
In short: as §1

[1] = compound: CNC(=O)C1=CC=CC=C1NC2=NC(=NC=C2Cl)NC3=C(C=C(C=C3)N4CCOCC4)OC
In short: as §1

defactinib = compound: CNC(=O)c1ccc(Nc2ncc(C(F)(F)F)c(NCc3nccnc3N(C)S(C)(=O)=O)n2)cc1 [defactinib]
In short: as §1

[2] = compound: CNc1nc(-c2ccc3c(N)n[nH]c3c2)cc(N2C[C@@H](C(=O)NC3CCCCC3)CC[C@H]2C)n1
In short: as §1

encorafenib = compound: COC(=O)N[C@@H](C)CNc1nccc(-c2cn(C(C)C)nc2-c2cc(Cl)cc(NS(C)(=O)=O)c2F)n1 [encorafenib]
In short: as §1

[3] = compound: COC(=O)[C@H](CCSC)NC(=O)C1=C(C=C(C=C1)NC[C@H](CS)N)C2=CC=CC=C2
In short: as §1

alisertib = compound: COc1cc(Nc2ncc3c(n2)-c2ccc(Cl)cc2C(c2c(F)cccc2OC)=NC3)ccc1C(=O)O [alisertib]
In short: as §1

[4] = compound: COc1cc2nc(-c3cc(F)ccc3O)nc(N[C@@H]3CNC[C@H]3C(C)(C)O)c2cc1OC
In short: as §1

gefitinib = compound: COc1cc2ncnc(Nc3ccc(F)c(Cl)c3)c2cc1OCCCN1CCOCC1 [gefitinib]
In short: as §1

Measured: log2 fold change

SNAP91 (UniProt O60641)
inactive: alvocidib -0.023 | Tubastatin A -0.031 | [1] -0.075 | defactinib 0.071 | [2] -0.098 | encorafenib 0.111 | [3] -0.024 | alisertib -0.054 | [4] 0.026 | gefitinib 0.061

SNRK (UniProt Q9NRH2)
inactive: alvocidib -0.045 | Tubastatin A -0.125 | [1] 0.104 | defactinib 0.078 | [2] 0.113 | encorafenib 0.083 | [3] -0.014 | alisertib 0.029 | [4] 0.034 | gefitinib 0.004

SMC4 (UniProt Q9NTJ3)
inactive: alvocidib 0.03 | Tubastatin A -0.079 | [1] -0.006 | defactinib -0.003 | [2] -0.008 | encorafenib 0.004 | [3] 0.024 | alisertib 0.001 | [4] 0 | gefitinib -0.024

SNX2 (UniProt O60749)
inactive: alvocidib 0.001 | Tubastatin A -0.027 | [1] 0.007 | defactinib 0.007 | [2] -0.014 | encorafenib 0.001 | [3] 0.081 | alisertib 0.003 | [4] 0.011 | gefitinib -0.013

SMCR8 (UniProt Q8TEV9)
inactive: alvocidib -0.068 | Tubastatin A -0.006 | [1] 0.018 | defactinib 0.17 | [2] 0.078 | encorafenib -0.054 | [3] 0.042 | alisertib -0.036 | [4] 0.037 | gefitinib -0.05

SMIM15 (UniProt Q7Z3B0)
inactive: alvocidib -0.007 | Tubastatin A 0.005 | [1] 0.012 | defactinib -0.013 | [2] 0.123 | encorafenib 0.002 | [3] -0.057 | alisertib -0.036 | [4] 0.01 | gefitinib 0.007

SOCS2 (UniProt O14508)
inactive: alvocidib -0.068 | Tubastatin A 0.05 | [1] 0.01 | defactinib -0.091 | [2] 0.013 | encorafenib -0.008 | [3] -0.104 | alisertib -0.013 | [4] -0.02 | gefitinib -0.027

SNRNP200 (UniProt O75643)
inactive: alvocidib -0.001 | Tubastatin A -0.02 | [1] -0.003 | defactinib 0.008 | [2] -0.002 | encorafenib 0.004 | [3] 0.053 | alisertib 0.006 | [4] 0.001 | gefitinib -0.009

SMYD5 (UniProt Q6GMV2)
inactive: alvocidib -0.031 | Tubastatin A 0.014 | [1] 0.016 | defactinib -0.024 | [2] -0.007 | encorafenib -0.055 | [3] 0.028 | alisertib -0.032 | [4] 0.01 | gefitinib 0.016

SNRPN isoform 2 (UniProt P63162)
inactive: alvocidib -0.038 | [1] 0.086 | defactinib -0.138 | encorafenib 0.024 | [3] 0.028 | [4] -0.144

SNX18 isoform 2 (UniProt Q96RF0)
inactive: alvocidib 0.048 | [1] -0.046 | defactinib -0.04 | encorafenib -0.008 | [3] 0.066 | alisertib -0.169 | [4] -0.181 | gefitinib -0.009

SOHLH2 isoform 3 (UniProt Q9NX45)
inactive: alvocidib -0.014 | Tubastatin A -0.04 | [1] -0.001 | [2] -0.119 | encorafenib 0.047 | [3] -0.032 | alisertib -0.009 | [4] -0.008 | gefitinib 0.066

SMU1 isoform 2 (UniProt Q2TAY7)
inactive: alvocidib -0.136 | Tubastatin A 0.274 | [1] 0.01 | defactinib -0.115 | encorafenib 0 | [3] 0.011 | alisertib 0.247 | [4] 0.019 | gefitinib -0.077

SOX6 (UniProt P35712)
inactive: alvocidib -0.01 | Tubastatin A -0.032 | [1] 0.029 | defactinib 0.038 | [2] -0.192 | encorafenib -0.011 | [3] -0.12 | alisertib -0.008 | gefitinib -0.006

SMDT1 (UniProt Q9H4I9)
inactive: alvocidib -0.091 | Tubastatin A 0.042 | [1] -0.023 | [2] 0.046 | [4] 0.085

SP3 (UniProt Q02447)
inactive: alvocidib 0.075 | Tubastatin A 0.054 | [1] 0.036 | [2] 0.136 | encorafenib 0.011 | [3] 0.003 | alisertib 0.036 | [4] 0.022 | gefitinib -0.173

SORBS3 (UniProt O60504)
inactive: alvocidib 0 | Tubastatin A -0.095 | [1] 0.032 | defactinib -0.062 | [2] 0.059 | encorafenib 0.02 | [3] -0.143 | [4] 0.065

SNAP47 (UniProt Q5SQN1)
inactive: alvocidib -0.025 | Tubastatin A -0.048 | [1] 0.001 | [2] -0.001 | encorafenib -0.024 | [3] 0.128 | alisertib 0.04 | gefitinib -0.005

SMPD2 (UniProt O60906)
inactive: alvocidib -0.043 | Tubastatin A 0.088 | [1] -0.787 | [2] -0.034 | encorafenib 0.09 | [3] -0.22 | [4] -0.074

Nine consecutive entries out of the list so far:
SNX2 (UniProt O60749)
inactive: alvocidib 0.001 | Tubastatin A -0.027 | [1] 0.007 | defactinib 0.007 | [2] -0.014 | encorafenib 0.001 | [3] 0.081 | alisertib 0.003 | [4] 0.011 | gefitinib -0.013

SMCR8 (UniProt Q8TEV9)
inactive: alvocidib -0.068 | Tubastatin A -0.006 | [1] 0.018 | defactinib 0.17 | [2] 0.078 | encorafenib -0.054 | [3] 0.042 | alisertib -0.036 | [4] 0.037 | gefitinib -0.05

SMIM15 (UniProt Q7Z3B0)
inactive: alvocidib -0.007 | Tubastatin A 0.005 | [1] 0.012 | defactinib -0.013 | [2] 0.123 | encorafenib 0.002 | [3] -0.057 | alisertib -0.036 | [4] 0.01 | gefitinib 0.007

SOCS2 (UniProt O14508)
inactive: alvocidib -0.068 | Tubastatin A 0.05 | [1] 0.01 | defactinib -0.091 | [2] 0.013 | encorafenib -0.008 | [3] -0.104 | alisertib -0.013 | [4] -0.02 | gefitinib -0.027

SNRNP200 (UniProt O75643)
inactive: alvocidib -0.001 | Tubastatin A -0.02 | [1] -0.003 | defactinib 0.008 | [2] -0.002 | encorafenib 0.004 | [3] 0.053 | alisertib 0.006 | [4] 0.001 | gefitinib -0.009

SMYD5 (UniProt Q6GMV2)
inactive: alvocidib -0.031 | Tubastatin A 0.014 | [1] 0.016 | defactinib -0.024 | [2] -0.007 | encorafenib -0.055 | [3] 0.028 | alisertib -0.032 | [4] 0.01 | gefitinib 0.016

SNRPN isoform 2 (UniProt P63162)
inactive: alvocidib -0.038 | [1] 0.086 | defactinib -0.138 | encorafenib 0.024 | [3] 0.028 | [4] -0.144

SNX18 isoform 2 (UniProt Q96RF0)
inactive: alvocidib 0.048 | [1] -0.046 | defactinib -0.04 | encorafenib -0.008 | [3] 0.066 | alisertib -0.169 | [4] -0.181 | gefitinib -0.009

SOHLH2 isoform 3 (UniProt Q9NX45)
inactive: alvocidib -0.014 | Tubastatin A -0.04 | [1] -0.001 | [2] -0.119 | encorafenib 0.047 | [3] -0.032 | alisertib -0.009 | [4] -0.008 | gefitinib 0.066

Continued.

SNX19 (UniProt Q92543)
inactive: alvocidib 0.022 | Tubastatin A -0.047 | [1] -0.014 | [2] 0.085 | encorafenib 0.03 | [3] 0.047 | alisertib -0.06 | gefitinib 0.134

SNAPC2 (UniProt Q13487)
inactive: alvocidib -0.034 | Tubastatin A -0.117 | [1] -0.005 | [2] -0.175 | alisertib 0.014 | gefitinib -0.044

SNX4 (UniProt O95219)
inactive: alvocidib -0.01 | Tubastatin A -0.016 | [1] 0.007 | defactinib -0.044 | [2] -0.029 | encorafenib -0.004 | [3] 0.004 | alisertib -0.092 | gefitinib -0.11

SNX29 (UniProt Q8TEQ0)
inactive: alvocidib -0.114 | Tubastatin A -0.324 | [1] -0.038 | encorafenib -0.057 | [3] -0.195 | alisertib -0.055 | gefitinib -0.129

SMPD4 isoform 4 (UniProt Q9NXE4)
inactive: alvocidib 0.066 | Tubastatin A 0.311 | defactinib -0.07 | encorafenib 0.012 | [3] -0.36 | alisertib -0.134 | gefitinib 0.088

SMIM20 isoform 2 (UniProt Q8N5G0)
inactive: alvocidib 0.069 | [1] -0.035 | defactinib -0.029 | [2] 0.08 | alisertib -0.001 | [4] -0.057 | gefitinib -0.075

SMIM26, A0A096LP01
inactive: alvocidib 0.009 | Tubastatin A -0.011 | alisertib -0.081 | gefitinib 0.101

SNAP23 isoform 2 (UniProt O00161)
inactive: alvocidib -0.323 | Tubastatin A -0.202 | [1] 0.029 | defactinib -0.118 | encorafenib -0.295 | [3] 0.071 | alisertib -0.15 | [4] -0.152 | gefitinib 0.016

SP4 (UniProt Q02446)
inactive: alvocidib -0.075 | Tubastatin A 0.118 | [1] 0.032 | defactinib 0.057 | [2] 0.008 | encorafenib -0.037 | [3] -0.028 | [4] -0.067

SOX5 (UniProt P35711)
inactive: alvocidib 0.048 | Tubastatin A -0.113 | [1] -0.219 | defactinib 0.017 | [2] 0.074 | encorafenib 0.034 | [3] -0.025 | [4] -0.104

SMPDL3B (UniProt Q92485)
inactive: alvocidib 0.221 | Tubastatin A 0.04 | defactinib 0.116 | [2] 0.005 | encorafenib -0.081 | [3] -0.029 | [4] -0.044

SPAG9 isoform 4 (UniProt O60271)
inactive: alvocidib -0.176 | Tubastatin A 0.004 | defactinib 0.039 | encorafenib 0.045 | [3] 0.043

SPA17 (UniProt Q15506)
inactive: alvocidib -0.208 | Tubastatin A 0.021 | defactinib 0.056 | [2] 0.038 | encorafenib -0.007 | [3] -0.032 | [4] -0.038
